Reference: patent US9745339B2 (GRAFFINITY PHARMACEUTICALS GMBH, priority 2012, dated 2017)

What was measured:
[1] = tested on: Tocilizumab; test: Microtiter plate chromatography of resins: binding and elution of Tocilizumab; conditions: mass eluted (glycine pH 2.5) / mass injected
Procedure: (§1) Resins were assessed in packed mode by microtiter plate chromatography. For each column, approximately 30 μl of resin were transferred to a 384-well filter plate and sealed with appropriate top fits. Columns with rProtein A SEPHAROSE 4 FF and MABSORBENT A2P HF were included as controls.
(§2) Either 3.3 cv of whole IgGs dissolved at 0.5 mg ml^−1 in PBS or undiluted host cell proteins (HCP) were injected onto columns.
(§3) Unbound protein was washed from columns with 5 cv of PBS prior to elution with 5 cv of glycine buffer at pH 2.5. […] During injection of samples, speed was reduced to 10 g and centrifugation time increased to 5-10 min. Effluent fractions were collected in 384-well plates and concentrations of protein were analyzed by Bradford assay. Protein masses mi, mft and me (see below) were calculated as the product of fraction volume and measured protein concentration.
(§4) The fraction of bound protein was calculated as the difference between the total mass of protein injected mi and the mass of protein detected in the flowthrough mft, divided by the total mass of protein injected.
(§5) The yield of protein was calculated as the mass of protein eluted me, divided by the mass of protein injected mi.
(§6) The fraction of bound protein and the yield of protein were calculated for each resin based on data for whole IgG-antibodies. In the case of host cell proteins, only the fraction of bound protein is given. Selectivity of resins was calculated from data for Bevacizumab whole IgG and host cell proteins. Due to limited experimental precision, selectivity was truncated for values beyond 10.

[2] = tested on: poly-IgG from human serum (h-poly-IgG); test: Microtiter plate chromatography of resins: binding and elution of human poly-IgG; conditions: mass eluted (glycine pH 2.5) / mass injected
Procedure: as §1, §2, §3, §4, §5, §6

[3] = tested on: Bevacizumab spiked into host cell proteins; test: Purification of antibody from cell culture supernatant by column chromatography; conditions: for purity: Bevacizumab 0.12 mg/ml spiked into host cell proteins (20% purity feed), elution 50 mM glycine pH 3.0; for yield: elution peak area relative to Protein A column taken as 100%, runs with pure antibody

Row | SMILES | Tocilizumab Yield [1] | h-poly-IgG Yield [2] | purity [3] | yield [3]
1 | NCCCn1cnc2cc(C(=O)Nc3nc(-c4ccncc4)cs3)ccc21 [Ligand L47, 1-(3-Amino-1-propyl)benzimidazole-5-carboxylic acid N-[4-(4-pyridyl)thiazol-2-yl] amide] | 108% | 97% | 85% | 100%
2 | NCCCn1cnc2cc(C(=O)Nc3nnc(-c4ccco4)s3)ccc21 [Ligand L05, 1-(3-Amino-1-propyl)benzimidazole-5-carboxylic acid N-[5-(2-furyl)-1,3,4-thiadiazol-2-yl]amide] | 103% | 104% | 86% | 100%
3 | NCCOCCOCCn1cnc2cc(C(=O)Nc3nnc(-c4ccco4)s3)ccc21 | 93% | 92% | 93% | 100%
4 | Cc1nc2cc(C(=O)Nc3nc(-c4ccccn4)cs3)ccc2n1CCCN [Ligand L42, 1-(3-Amino-1-propyl)-2-methylbenzimidazole-5-carboxylic acid N-[4-(2-pyridyl)thiazol-2-yl] amide] | 106% | 103% | 89% | 100%
5 | NCCCn1c(=O)[nH]c2cc(C(=O)Nc3nnc(-c4ccco4)s3)ccc21 [Ligand L24, 1-(3-Amino-1-propyl)-2-oxo-2,3-dihydrobenzimidazole-5-carboxylic acid N-[5-(2-furyl)-1,3,4-thiadiazol-2-yl] amide] | 93% | 99% | 91% | 100%
6 | NCCCNc1ccc(C(=O)Nc2nc(-c3ccccn3)cs2)cn1 [Ligand L40, 6-[(3-Amino-1-propyl)amino]nicotinic acid N-[4-(2-pyridyl)thiazol-2-yl] amide] | 101% | 87% | 85% | 100%
7 | Cc1nc2cc(C(=O)Nc3nnc(-c4ccco4)s3)ccc2n1CCCN [Ligand L39, 1-(3-Amino-1-propyl)-2-methylbenzimidazole-5-carboxylic acid N-[5-(2-furyl)-1,3,4-thiadiazol-2-yl] amide] | 99% | 98% | 91% | 100%
8 | NCCCNc1ccc(C(=O)Nc2nnc(-c3ccco3)s2)cn1 [Ligand L19, 6-[(3-Amino-1-propyl)amino]nicotinic acid N-[5-(2-furyl)-1,3,4-thiadiazol-2-yl]amide] | 91% | 96% | 80% | 100%
9 | NCCCn1cnc2cc(C(=O)Nc3nc(-c4ccccn4)cs3)ccc21 [Ligand L23, 1-(3-Amino-1-propyl)benzimidazole-5-carboxylic acid N-[4-(2-pyridyl)thiazol-2-yl] amide] | 95% | 103% | 82% | 100%
